Values from PubChem BioAssay AID504786 (Drosophila RNAi Screening Center, 2011).

Test: 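Knock-downs reducing HIF reporter induction by the iron chelator DFO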 (primary screen)
Cells: Drosophila S2 cells with a stable HIF luciferase reporter
Reagent: long dsRNA against Drosophila genes, about 0.2 µg dsRNA per well of a 384-well plate
Time to read-out: three days of knock-down, then 20 h of DFO before reading
Treatment: desferrioxamine (DFO) at 100 µM, an iron chelator that mimics hypoxia, for 20 h
Measurement: 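HIF reporter luminescence in cells given 100 µM DFO for 20 h, using the mouse ldh-a hypoxia-response element, scored as per-plate z-scores; higher means greater loss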
Direction: z-score: higher = stronger loss of HIF reporter signal
The screen tested about 21,000 reagents; shown is an unselected part of those with a known target gene and a result. 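Primary screen; positive scores mean lost reporter signal, so the sign may be inverted from the usual convention.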 Reagents against one gene are numbered here. Names joined by + are all predicted targets of the reagent.

Gene | reagent no. | z-score, replicate 1 | z-score, replicate 2 | z-score, replicate 3 | z-score, replicate 4
CG14628 | 1 | -0.4 | -0.7 | – | –
CG11964 | 1 | -0.3 | -0.7 | – | –
Tep3 (Thioester-containing protein 3) | 1 | 0.1 | -0.3 | – | –
CG34436 | 1 | -0.2 | -0.2 | – | –
CG9992 | 1 | -0.3 | -0.3 | – | –
CG31612 | 1 | -0.4 | -0.2 | – | –
CG31612 | 2 | -0.3 | 0 | – | –
Ino80 (INO80 complex subunit) | 1 | -1.4 | -0.1 | – | –
Ino80 (INO80 complex subunit) | 2 | -0.4 | -0.4 | – | –
Ino80 (INO80 complex subunit) | 3 | -1.4 | -0.7 | – | –
Cip4 (Cdc42-interacting protein 4) | 1 | -0.3 | -0.3 | – | –
Cip4 (Cdc42-interacting protein 4) | 2 | 0.1 | 0.4 | – | –
CG43394 | 1 | -0.7 | -0.3 | – | –
Gapdh1 (Glyceraldehyde 3 phosphate dehydrogenase 1) | 1 | -0.4 | -0.5 | – | –
CG6154 | 1 | 0.1 | 0.9 | – | –
Pstk + Tim9b | 1 | -0.3 | -0.3 | – | –
Pstk + Tim9b | 2 | -0.3 | -0.4 | – | –
Obp93a (Odorant-binding protein 93a) | 1 | 0.2 | -0.8 | – | –
CG12170 | 1 | -0.4 | -0.6 | 0.1 | -0.3
Pura (Puratrophin-1-like) | 1 | -0.2 | 0 | – | –
Pura (Puratrophin-1-like) | 2 | -0.3 | -0.4 | – | –
Pura (Puratrophin-1-like) | 3 | -0.3 | -0.4 | – | –
Pura (Puratrophin-1-like) | 4 | 0.1 | -0.5 | – | –
Pura (Puratrophin-1-like) | 5 | -0.2 | -0.4 | – | –
mRpL43 (mitochondrial ribosomal protein L43) | 1 | -0.4 | -0.5 | 0.8 | 1.5
CycD (Cyclin D) | 1 | 0.5 | 0.9 | – | –
Polr1A (RNA polymerase I subunit A) | 1 | -0.1 | 0.2 | – | –
Csp (Cysteine string protein) | 1 | -0.3 | -0.5 | – | –
ova (ovaries absent) | 1 | 0.1 | -0.5 | – | –
CG3868 | 1 | -0.3 | -0.3 | – | –
Mrtf (Myocardin-related transcription factor) | 1 | 4.1 | 2 | – | –
Mrtf (Myocardin-related transcription factor) | 2 | 1.9 | 0.1 | – | –
Mrtf (Myocardin-related transcription factor) | 3 | 0 | -0.4 | – | –
CCHa2 (CCHamide-2) | 1 | -0.4 | 1 | -0.4 | -0.4
CG9932 | 1 | -0.3 | -0.2 | – | –
Tfb1 (Transcription factor B1) | 1 | -0.4 | -0.4 | – | –
CG43773 | 1 | 0.5 | 0.6 | – | –
CG43773 | 2 | -0.3 | -0.5 | – | –
CG6729 | 1 | -0.4 | -0.6 | -0.5 | -0.3
lark | 1 | -0.1 | 0.4 | – | –
tadr (torn and diminished rhabdomeres) | 1 | -0.3 | -0.4 | – | –
Isha (Insulator su(Hw) mRNA adaptor) | 1 | 4.1 | 4.1 | – | –
Cyp4e2 (Cytochrome P450 4e2) | 1 | -0.3 | -0.6 | – | –
CG15517 | 1 | -0.2 | 0.4 | – | –
maca | 1 | 1.2 | 1.1 | – | –
Traf4 (TNF-receptor-associated factor 4) | 1 | 0.2 | 0.4 | – | –
Traf4 (TNF-receptor-associated factor 4) | 2 | -0.3 | -0.4 | – | –
CG13606 | 1 | -0.4 | 0 | – | –
CenG1A (Centaurin gamma 1A) | 1 | -0.3 | -0.3 | – | –
CenG1A (Centaurin gamma 1A) | 2 | -0.4 | -0.2 | – | –
CenG1A (Centaurin gamma 1A) | 3 | -0.2 | -0.2 | – | –
CG34282 | 1 | -1.1 | -0.8 | – | –
CG15120 | 1 | -0.1 | -0.4 | – | –
CG13711 | 1 | -0.4 | 0.4 | – | –
Blm + CG14721 | 1 | -0.1 | -0.1 | – | –
dmrt11E (doublesex-Mab related 11E) | 1 | -0.4 | -1.1 | – | –
Duox (Dual oxidase) | 1 | -0.3 | -0.8 | – | –
Polr2J (RNA polymerase II subunit J) | 1 | -0.2 | -0.5 | – | –
Iswi (Imitation SWI) | 1 | 1.8 | 1.3 | – | –
RpL22-like (Ribosomal protein L22-like) | 1 | -0.4 | -0.2 | – | –
CG7341 | 1 | -0.3 | -0.5 | – | –
CG6553 | 1 | -0.1 | -0.2 | – | –
Tmtc4 (Transmembrane O-mannosyltransferase targeting cadherins 4) | 1 | -0.2 | 0.3 | – | –
CG42286 (retired record) | 1 | 0 | 0.4 | – | –
PpV (Protein phosphatase V) | 1 | 0.1 | 0.1 | – | –
CG32700 | 1 | -0.4 | -0.5 | – | –
CG32700 | 2 | -0.3 | -0.4 | – | –
mas (masquerade) | 1 | -0.3 | -0.2 | – | –
CG31869 | 1 | -0.2 | -0.1 | – | –
CG31869 | 2 | -0.3 | -0.3 | – | –

Only “z-score, replicate 1” (8 entries from above):
Pura (Puratrophin-1-like) #2: -0.3
Pura (Puratrophin-1-like) #3: -0.3
Pura (Puratrophin-1-like) #4: 0.1
Pura (Puratrophin-1-like) #5: -0.2
mRpL43 (mitochondrial ribosomal protein L43): -0.4
CycD (Cyclin D): 0.5
Polr1A (RNA polymerase I subunit A): -0.1
Csp (Cysteine string protein): -0.3

The list goes on:
Gene | reagent no. | z-score, replicate 1 | z-score, replicate 2 | z-score, replicate 3 | z-score, replicate 4
CG5033 | 1 | -0.2 | -0.2 | – | –
Ccdc114 (Coiled-coil domain containing protein 114) | 1 | -0.3 | -0.5 | – | –
sev (sevenless) | 1 | -0.3 | -0.3 | – | –
CG34417 | 1 | -0.3 | -0.2 | – | –
CG34417 | 2 | -0.3 | -0.6 | – | –
CG34417 | 3 | -0.4 | -0.5 | – | –
CG1791 | 1 | -0.3 | -0.7 | – | –
Mrm2 (Mitochondrial rRNA methyltransferase 2) | 1 | -0.7 | -0.4 | – | –
CG4950 | 1 | -0.3 | -0.5 | – | –
CG2887 | 1 | -0.4 | -0.7 | – | –
CG5783 | 1 | -0.3 | 0 | – | –
CG10628 | 1 | 0.1 | 0.5 | – | –
Cdk4 (Cyclin-dependent kinase 4) | 1 | -0.1 | -0.1 | – | –
CG4101 | 1 | -0.1 | -0.8 | – | –
stj (straightjacket) | 1 | -0.3 | -0.4 | – | –
PNPase (Polynucleotide phosphorylase) | 1 | -0.3 | 0.1 | – | –
moon (moonshiner) | 1 | -0.4 | -1 | – | –
ctp (cut up) | 1 | 0.8 | 0.8 | – | –
CG8366 | 1 | -0.2 | 0.5 | – | –
CCT6 (Chaperonin containing TCP1 subunit 6) | 1 | 0.1 | 1.2 | – | –
CG15260 | 1 | -0.1 | -0.4 | – | –
PPO1 (Prophenoloxidase 1) | 1 | -0.3 | -0.3 | – | –
CG4983 | 1 | -0.4 | -0.2 | – | –
DCP1 (Decapping protein 1) | 1 | -0.3 | -0.8 | – | –
Unc-76 (Uncoordinated 76) | 1 | -0.3 | -0.4 | – | –
Unc-76 (Uncoordinated 76) | 2 | -0.1 | -0.9 | – | –
CG3407 | 1 | -0.2 | -0.5 | – | –
emb (embargoed) | 1 | -0.2 | 0 | – | –
CG12945 | 1 | 0.1 | -0.4 | – | –
rho (rhomboid) | 1 | -0.3 | -0.5 | – | –
CG3176 + CR18166 + CG32817 | 1 | -0.1 | 0.2 | – | –
CG3176 + CR18166 + CG32817 | 2 | 0.2 | -0.1 | – | –
CG3176 + CR18166 + CG32817 | 3 | -0.2 | -0.3 | – | –
dsx (doublesex) | 1 | -0.2 | -0.8 | – | –
dsx (doublesex) | 2 | -0.3 | 0 | 0.4 | -0.4
CG10553 | 1 | 0.1 | 0.2 | – | –
